Results reported in US20250179126A1, “A NOVEL PEPTIDE FROM A PHOTOSYNTHETIC BACERIUM DIRECTLY TARGETS MITOCHONDRIA TO TRIGGER APOPTOSIS IN ADVANCED PROSTATE CANCER CELLS” (priority 2022, published 2025).
Not every detail of the peptide structures is certain; ends, links or a residue may be inferred.

Columns and labels:
[1] = test system: PC3 cells; test: Annexin-V apoptosis assay by flow cytometry, PC3; type: cell-based, human; details: PC3, 48 hr; Ptxl 1 nM, p28 50 μM, aurA/aurB 0.5-50 μM
Description: (§1) FIG. 7A-7D: Determination of apoptotic cell death. Prostate cancer cell lines (7A: LNCaP, 7B: DU145 and 7C: PC3) and normal prostate CRL11611 cells (7D) were exposed to the indicated agents for 48 hr and stained using apoptosis assay kits according to the manufacturer's instructions. The samples were analyzed by flow cytometry. Mean±SE (N=3).
(§2) After 48 hr, annexin-V apoptosis assays (Thermo Fisher Scientific) were conducted to detect apoptotic cells. At least 10,000 cells in each case were analyzed by FACS (RRC, UIC).

[2] = test system: DU145 cells; test: Annexin-V apoptosis assay by flow cytometry, DU145; type: cell-based, human; details: DU145, 48 hr; Ptxl 1 nM, p28 50 μM, aurA/aurB 0.5-50 μM
Description: as §1, §2

[3] = molecular target: T1, mitochondrial ATP synthase gamma subunit (ATP5C) (Homo sapiens, UniProt P36542); test: Pull-down assay with biotin-labeled peptides and protein identification; type: binding; details: mitochondrial fraction of PC3 cells, biotin-labeled peptide, 16 hr at 4° C.
T1 construct: endogenous in cells; host or cells: PC3 human prostate cancer cells, mitochondrial fraction (detergent extract)
T1 sequence (P36542 26-298): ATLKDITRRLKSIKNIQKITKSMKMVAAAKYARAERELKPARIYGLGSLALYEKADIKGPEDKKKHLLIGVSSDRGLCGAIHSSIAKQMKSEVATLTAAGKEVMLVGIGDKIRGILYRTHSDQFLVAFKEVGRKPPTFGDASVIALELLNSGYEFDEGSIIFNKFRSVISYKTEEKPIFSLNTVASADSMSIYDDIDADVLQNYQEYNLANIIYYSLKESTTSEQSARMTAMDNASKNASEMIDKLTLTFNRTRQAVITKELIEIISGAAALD
Source text: 8A, TEM image of PC3 cells. Representative TEM micrograph of aurB-treated cells depicting the intraritochondrial localization of aurB-GNRs (arrowheads) and mitochondria](Mt) swelling. Scale bar: 600 nm. Mt: mitochondria. […] Coomassie-stained SDS-PAGE gels are shown (8B). The protein band at ˜35 kDa (arrowhead) was identified as ATP5C using mass spectrometry analysis. The identified fragments are indicated in green underlined sequence (SEQ ID NO: 4)(8C).
Pull-down assay and protein identification: PC3 cells were washed twice with PBS, and the mitochondrial fraction was prepared with a Qproteome mitochondria isolation kit (Qiagen). […] The peptides were then preincubated with streptavidin-agarose beads for 4 hr. After washing, the beads were boiled, and the released proteins were subjected to SDS-PAGE analysis. A protein band of ˜35 kDa was subjected to microcapillary LC/MS/MS for protein identification (Harvard Medical School, Taplin Mass Spectrometry Facility). For IB, proteins were transferred to nitrocellulose membranes. After blocking with 5% BSA in TBST, the membranes were incubated with anti-ATP5C antibody at 1:25,000 in 5% BSA/TBST (Abcam) for 16 hr at 4° C. The secondary antibody was applied (anti-goat IgG-HRP; Santa Cruz Biotechnology). The signal was detected using enhanced chemiluminescence (ECL).

[4] = test system: normal prostate CRL11611 cells; test: Annexin-V apoptosis assay by flow cytometry, normal prostate CRL11611; type: cell-based, human; details: normal CRL11611, 48 hr; Ptxl 1 nM, p28 50 μM, aurA/aurB 0.5-50 μM
Description: as §1, §2

[5] = test system: LNCaP cells; test: Annexin-V apoptosis assay by flow cytometry, LNCaP; type: cell-based, human; details: 48 hr, Ptxl 1 nM, p28 50 μM, aurA/aurB 0.5-50 μM
Description: as §1, §2

[6] = test system: PC3 xenograft tumors; test: PC3 xenograft animal model; type: in vivo, athymic mice; details: four weeks i.p.; aurB 5 mg/kg daily, p28 10 mg/kg daily
Source text: FIG. 10A-10D: Inhibition of PC3 xenograft tumor growth. 10A, When the s.c. tumors reached ˜5 mm, athymic mice were randomized into control (PBS) and i.p. treatment groups. Mean±SE (N=5). *P<0.01. […] 10C, At the end of treatment, tumors were dissected and weighed. * P<0.01. 10D, In sections of tumors from the control group, there was a marked increase in Ki-67-positive proliferating cells (stained brown and counterstained with haematoxylin, ×40), and only a few apoptotic cells were observed, as determined by TUNEL and caspase-3 (Casp-3) staining. There was an apparent sharp reduction in Ki-67-positive proliferating cells and a higher number of TUNEL-positive apoptotic cells in the aurB-treated group compared to the control group. Similarly, Casp-3 expression in aurB-treated tumors was increased markedly compared with that in untreated controls.
Xenograft animal model: Human prostate cancer cells (PC3) were injected s.c. into the right flanks of 5- to 6-week-old male athymic mice 78. When tumors reached 5 mm in diameter, animals were randomized into control and treatment groups. […] All animals were weighed twice a week. At necropsy, tumors were dissected and weighed. Statistical comparisons were performed by one-way analysis of variance (ANOVA) (control vs treatment). Tumor samples were fixed overnight in 10% buffered formalin. Fixation was followed by dehydration, clearing and infiltration. […]

CSCC[C@H](NC(=O)CNC(=O)[C@H](CC(=O)O)NC(=O)[C@@H](NC(=O)[C@@H](NC(=O)[C@@H](NC(=O)CNC(=O)[C@H](CCC(N)=O)NC(=O)[C@H](CCSC)NC(=O)[C@H](CC(=O)O)NC(=O)[C@H](C)NC(=O)[C@H](C)NC(=O)[C@@H](NC(=O)[C@H](CO)NC(=O)[C@@H](N)CC(C)C)[C@@H](C)O)C(C)C)C(C)C)[C@@H](C)O)C(=O)N[C@@H](C)C(=O)N[C@@H](CO)C(=O)NCC(=O)N[C@@H](CC(C)C)C(=O)N[C@@H](CC(=O)O)C(=O)N[C@@H](CCCCN)C(=O)N[C@@H](CC(=O)O)C(=O)N[C@@H](Cc1ccc(O)cc1)C(=O)N[C@@H](CC(C)C)C(=O)N[C@@H](CCCCN)C(=O)N1CCC[C@H]1C(=O)N[C@@H](CC(=O)O)C(=O)N[C@@H](CC(=O)O)C(=O)O [p28, LST AAD MQG VVT DGM ASG LDK DYL KPDD, reference compound]
apoptotic cell death [1]: but not PC3 and CRL11611 cells
apoptotic cell death [2]: induced apoptotic cell death
binding to ATP5C (pull-down of ~35 kDa protein, IB) [3]: did not
apoptotic cell death [4]: but not PC3 and CRL11611 cells
apoptotic cell death [5]: induced apoptotic cell death
antitumor effect on PC3 tumor growth [6]: did not exhibit an antitumor effect
